The M2OR odorant receptor database
Residue numbers refer to the chain shown, from its start. This is a selection; strong and weak results do not stand in their true shares. The calls were merged from several studies; some rest on single wells. Some of the results follow.

Chains of the proteins cited; added tags and fusions are not shown. Chains listed by the source or under a name are the forms on record and can include a tag or linker.
OR2J2, as listed by the source: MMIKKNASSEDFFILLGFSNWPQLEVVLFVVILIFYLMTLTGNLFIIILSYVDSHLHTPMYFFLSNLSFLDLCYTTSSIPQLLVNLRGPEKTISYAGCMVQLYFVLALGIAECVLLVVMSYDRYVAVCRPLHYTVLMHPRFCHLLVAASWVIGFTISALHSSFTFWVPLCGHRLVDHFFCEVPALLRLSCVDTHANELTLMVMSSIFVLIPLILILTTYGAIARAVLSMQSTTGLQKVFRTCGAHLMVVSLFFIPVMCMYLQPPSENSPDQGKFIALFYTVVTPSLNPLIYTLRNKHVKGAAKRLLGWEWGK
OR2J3, as listed by the source: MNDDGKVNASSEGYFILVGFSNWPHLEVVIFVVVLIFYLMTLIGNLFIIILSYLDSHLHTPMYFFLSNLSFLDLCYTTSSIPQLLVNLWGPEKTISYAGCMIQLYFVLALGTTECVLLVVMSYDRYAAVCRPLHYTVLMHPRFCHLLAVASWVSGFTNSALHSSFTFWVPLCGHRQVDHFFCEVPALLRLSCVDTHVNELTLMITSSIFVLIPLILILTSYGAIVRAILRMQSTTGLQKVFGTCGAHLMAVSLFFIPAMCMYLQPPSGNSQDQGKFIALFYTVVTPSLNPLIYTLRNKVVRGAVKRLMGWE

How the values were obtained:
Details in all cases: stereoisomer not certain
OR2H2 = tested on: T1, OR2H2
T1 sequence (whole entry): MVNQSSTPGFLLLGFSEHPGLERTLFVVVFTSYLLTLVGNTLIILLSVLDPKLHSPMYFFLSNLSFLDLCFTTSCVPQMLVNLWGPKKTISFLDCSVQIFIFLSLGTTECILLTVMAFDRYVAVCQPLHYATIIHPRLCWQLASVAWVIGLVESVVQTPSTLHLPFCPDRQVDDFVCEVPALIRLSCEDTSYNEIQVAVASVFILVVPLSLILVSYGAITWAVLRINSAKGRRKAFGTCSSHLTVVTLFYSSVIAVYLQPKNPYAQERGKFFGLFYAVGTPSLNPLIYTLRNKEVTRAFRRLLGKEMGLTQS
Method in brief: (§1)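 Assay methods differ from source to source, frequently being transient luciferase assays in mammalian cell lines. For each receptor–molecule pair, the label responsive (active) applies when the original authors judged the measured signal statistically different from baseline, and non-responsive (inactive) applies otherwise.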

OR2J1 = tested on: T2, OR2J1
T2 sequence (whole entry): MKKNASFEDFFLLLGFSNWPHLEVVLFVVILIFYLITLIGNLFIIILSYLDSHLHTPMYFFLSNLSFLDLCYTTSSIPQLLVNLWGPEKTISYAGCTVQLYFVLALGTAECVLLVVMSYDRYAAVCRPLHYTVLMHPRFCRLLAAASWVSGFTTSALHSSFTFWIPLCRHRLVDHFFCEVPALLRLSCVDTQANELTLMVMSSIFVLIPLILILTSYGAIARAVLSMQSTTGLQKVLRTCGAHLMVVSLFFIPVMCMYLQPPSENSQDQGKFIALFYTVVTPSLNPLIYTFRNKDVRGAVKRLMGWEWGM
Method in brief: as §1

OR2J2 (Homo sapiens) = biological target: T3, OR2J2 (Homo sapiens) (UniProt O76002)
T3 sequence (whole entry): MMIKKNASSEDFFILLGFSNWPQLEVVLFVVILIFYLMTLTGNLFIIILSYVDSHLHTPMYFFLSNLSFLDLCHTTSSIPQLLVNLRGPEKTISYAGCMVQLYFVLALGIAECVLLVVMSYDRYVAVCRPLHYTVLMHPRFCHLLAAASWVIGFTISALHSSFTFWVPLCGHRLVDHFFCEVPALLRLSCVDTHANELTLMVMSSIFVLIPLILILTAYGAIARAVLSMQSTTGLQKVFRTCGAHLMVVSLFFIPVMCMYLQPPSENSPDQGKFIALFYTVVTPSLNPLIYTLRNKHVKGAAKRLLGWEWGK
Method in brief: as §1

OR2J2 [1] = tested on: T4, OR2J2
T4 sequence (whole entry): T3 sequence (whole entry) with A218T
Method in brief: as §1

OR2J2 [2] = tested on: T5, OR2J2; remark: listed apart in the source
T5 sequence (whole entry): T3 sequence (whole entry) with H74Y, A146V, A218T
Method in brief: as §1

OR2J2 [3] = tested on: T6, OR2J2; remark: listed apart in the source
T6 sequence (whole entry): T3 sequence (whole entry) with H74Y, A111T, A146V
Method in brief: as §1

OR2J3 (Homo sapiens) = biological target: T7, OR2J3 (Homo sapiens) (UniProt O76001)
T7 sequence (whole entry): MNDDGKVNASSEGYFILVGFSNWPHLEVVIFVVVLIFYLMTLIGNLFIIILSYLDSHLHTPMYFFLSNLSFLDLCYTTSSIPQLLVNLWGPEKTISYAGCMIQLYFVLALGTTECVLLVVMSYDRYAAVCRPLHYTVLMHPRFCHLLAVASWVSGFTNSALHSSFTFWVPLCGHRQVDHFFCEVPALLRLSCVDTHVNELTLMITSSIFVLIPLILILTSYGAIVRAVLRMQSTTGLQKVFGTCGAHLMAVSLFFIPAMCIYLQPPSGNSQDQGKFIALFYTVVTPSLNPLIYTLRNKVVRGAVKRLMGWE
Method in brief: as §1

OR2J3 [4] = tested on: OR2J3
Method in brief: as §1

OR2J3 [5] = tested on: OR2J3; remark: listed apart in the source
Method in brief: as §1

OR2K2 (Homo sapiens) = biological target: T8, OR2K2 (Homo sapiens) (UniProt Q8NGT1)
T8 sequence (whole entry): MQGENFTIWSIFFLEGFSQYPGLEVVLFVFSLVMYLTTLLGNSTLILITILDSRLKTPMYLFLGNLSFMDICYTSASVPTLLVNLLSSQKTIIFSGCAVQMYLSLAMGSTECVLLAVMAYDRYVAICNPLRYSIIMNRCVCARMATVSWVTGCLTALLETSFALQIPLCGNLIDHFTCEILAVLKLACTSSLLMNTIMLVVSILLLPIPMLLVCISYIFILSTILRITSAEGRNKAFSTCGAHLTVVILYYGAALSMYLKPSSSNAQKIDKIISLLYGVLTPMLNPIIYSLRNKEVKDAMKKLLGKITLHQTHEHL
Method in brief: as §1

OR2L13 (Homo sapiens) = biological target: T9, OR2L13 (Homo sapiens) (UniProt Q8N349)
T9 sequence (whole entry): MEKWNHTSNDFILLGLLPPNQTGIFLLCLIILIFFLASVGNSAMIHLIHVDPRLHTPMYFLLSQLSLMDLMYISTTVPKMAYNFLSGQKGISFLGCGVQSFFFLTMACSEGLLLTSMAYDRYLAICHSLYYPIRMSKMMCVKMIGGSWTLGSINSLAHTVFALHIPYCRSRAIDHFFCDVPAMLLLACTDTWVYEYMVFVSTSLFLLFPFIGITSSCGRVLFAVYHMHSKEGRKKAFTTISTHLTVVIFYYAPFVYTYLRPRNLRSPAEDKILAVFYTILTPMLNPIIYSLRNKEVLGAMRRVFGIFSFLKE
Method in brief: as §1

OR2L2 (Homo sapiens) = biological target: T10, OR2L2 (Homo sapiens) (UniProt Q8NH16)
T10 sequence (whole entry): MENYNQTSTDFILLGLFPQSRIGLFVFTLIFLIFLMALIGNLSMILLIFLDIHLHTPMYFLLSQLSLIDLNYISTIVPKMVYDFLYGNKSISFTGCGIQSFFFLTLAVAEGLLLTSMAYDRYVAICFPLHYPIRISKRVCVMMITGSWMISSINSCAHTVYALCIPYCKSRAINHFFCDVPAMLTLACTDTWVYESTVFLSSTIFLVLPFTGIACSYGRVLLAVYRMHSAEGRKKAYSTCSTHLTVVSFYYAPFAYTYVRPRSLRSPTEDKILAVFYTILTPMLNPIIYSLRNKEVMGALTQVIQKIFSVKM
Method in brief: as §1

OR2J3 [6] = tested on: T11, OR2J3; remark: listed apart in the source
T11 sequence (whole entry): T7 sequence (whole entry) with R226Q
Method in brief: as §1

OR2J3 [7] = tested on: T12, OR2J3; remark: listed apart in the source
T12 sequence (whole entry): T7 sequence (whole entry) with I261M
Method in brief: as §1

SMILES | odorant receptor agonist call (OR2H2) | odorant receptor agonist call (OR2J1) | odorant receptor agonist call (OR2J2 (Homo sapiens)) | odorant receptor agonist call (OR2J2 [1]) | odorant receptor agonist call (OR2J2 [2]) | odorant receptor agonist call (OR2J2 [3]) | odorant receptor agonist call (OR2J3 (Homo sapiens)) | odorant receptor agonist call (OR2J3 [4]) | odorant receptor agonist call (OR2J3 [5]) | odorant receptor agonist call (OR2K2 (Homo sapiens)) | odorant receptor agonist call (OR2L13 (Homo sapiens)) | odorant receptor agonist call (OR2L2 (Homo sapiens)) | odorant receptor agonist call (OR2J3 [6]) | odorant receptor agonist call (OR2J3 [7])
CCCCCOC(C)=O | active | inactive | inactive | inactive | active | inactive | inactive | inactive | active | inactive | inactive | inactive | – | –
CCC1(O)C2(C)CCC(C2)C1(C)C (centres undefined) | inactive | inactive | inactive | inactive | inactive | inactive | inactive | – | – | inactive | inactive | inactive | – | –
C=CCc1ccc(OC)c(OC)c1 | inactive | inactive | inactive | inactive | active | active | active | – | – | inactive | inactive | inactive | – | –
CC12CCC(C1)C(C)(C)C2=O (centres undefined) | inactive | inactive | inactive | inactive | inactive | inactive | inactive | – | – | inactive | inactive | inactive | – | –
CC(C)CC(=O)O | inactive | inactive | inactive | inactive | inactive | inactive | inactive | – | – | inactive | inactive | inactive | – | –
COc1ccccc1O | inactive | inactive | inactive | inactive | inactive | inactive | active | – | – | inactive | inactive | inactive | – | –
CC12CCC(CC1)C(C)(C)O2 | inactive | inactive | inactive | inactive | inactive | inactive | active | – | – | inactive | inactive | inactive | – | –
CC(=O)OC(C)(C)C1CC=C(C)CC1 (centres undefined) | inactive | inactive | inactive | inactive | inactive | inactive | inactive | – | – | inactive | inactive | inactive | – | –
CC(C)=CCCC(C)=CC=O | inactive | inactive | inactive | inactive | inactive | inactive | active | – | – | inactive | inactive | inactive | – | –
CCCCCCCCCC=O | inactive | inactive | inactive | inactive | inactive | inactive | active | – | – | inactive | inactive | inactive | – | –
C=CC(C)(O)CCC=C(C)C (centres undefined) | inactive | inactive | inactive | inactive | inactive | inactive | inactive | – | – | inactive | inactive | inactive | – | –
O=C1CCCCCCCCCCCC(=O)OCCO1 | inactive | inactive | inactive | inactive | inactive | inactive | inactive | – | – | inactive | inactive | inactive | inactive | active

One compound at a time, from the list above. Values in the order: odorant receptor agonist call (OR2H2) | odorant receptor agonist call (OR2J1) | odorant receptor agonist call (OR2J2 (Homo sapiens)) | odorant receptor agonist call (OR2J2 [1]) | odorant receptor agonist call (OR2J2 [2]) | odorant receptor agonist call (OR2J2 [3]) | odorant receptor agonist call (OR2J3 (Homo sapiens)) | odorant receptor agonist call (OR2J3 [4]) | odorant receptor agonist call (OR2J3 [5]) | odorant receptor agonist call (OR2K2 (Homo sapiens)) | odorant receptor agonist call (OR2L13 (Homo sapiens)) | odorant receptor agonist call (OR2L2 (Homo sapiens)) | odorant receptor agonist call (OR2J3 [6]) | odorant receptor agonist call (OR2J3 [7])
`CC12CCC(CC1)C(C)(C)O2` as listed: inactive | inactive | inactive | inactive | inactive | inactive | active | – | – | inactive | inactive | inactive | – | –
`C=CC(C)(O)CCC=C(C)C` (centres undefined) as listed: inactive | inactive | inactive | inactive | inactive | inactive | inactive | – | – | inactive | inactive | inactive | – | –
